± gives the standard deviation of the averaged measurements. The list shows a part of the results.
Compound: Nc1nc2c(ncn2[C@@H]2O[C@H](COP(=O)(O)OP(=O)(O)OP(=O)(O)O)[C@@H](O)[C@H]2O)c(=O)[nH]1 [guanosine triphosphate]
Assay: NP40-soluble protein abundance relative to vehicle (solubility fold change) (ratio); higher = more soluble protein in presence of GTP
Experimental: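 Solubility proteome profiling in Jurkat crude lysate. Lysate was treated with Mg-GTP (0.1-10 mM) for 10 min at room temperature and 3 min at 37 °C, then solubilised with 0.8% NP40 and benzonase, followed by ultracentrifugation. Proteins were quantified by TMT10 LC-MS/MS; the value is the NP40-soluble abundance relative to the NP40-processed vehicle, from 3 independent experiments.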

Amino acid sequences for entries named in this document (tags omitted). A change or cut given only in a name is not applied to a line headed by its entry.
UniProt Q01581: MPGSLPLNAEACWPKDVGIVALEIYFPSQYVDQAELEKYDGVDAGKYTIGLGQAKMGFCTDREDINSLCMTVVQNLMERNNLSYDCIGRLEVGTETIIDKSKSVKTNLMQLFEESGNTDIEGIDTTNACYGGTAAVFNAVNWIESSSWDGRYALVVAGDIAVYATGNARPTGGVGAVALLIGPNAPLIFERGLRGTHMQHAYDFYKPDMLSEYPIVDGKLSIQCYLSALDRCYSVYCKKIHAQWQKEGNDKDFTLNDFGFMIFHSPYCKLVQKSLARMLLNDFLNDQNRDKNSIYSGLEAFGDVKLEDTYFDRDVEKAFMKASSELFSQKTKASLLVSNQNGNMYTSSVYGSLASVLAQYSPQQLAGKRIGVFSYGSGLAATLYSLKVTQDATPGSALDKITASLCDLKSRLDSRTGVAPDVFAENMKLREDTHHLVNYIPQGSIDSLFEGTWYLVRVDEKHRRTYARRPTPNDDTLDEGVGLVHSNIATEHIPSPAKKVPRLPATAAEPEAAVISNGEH
UniProt Q13216, whole entry: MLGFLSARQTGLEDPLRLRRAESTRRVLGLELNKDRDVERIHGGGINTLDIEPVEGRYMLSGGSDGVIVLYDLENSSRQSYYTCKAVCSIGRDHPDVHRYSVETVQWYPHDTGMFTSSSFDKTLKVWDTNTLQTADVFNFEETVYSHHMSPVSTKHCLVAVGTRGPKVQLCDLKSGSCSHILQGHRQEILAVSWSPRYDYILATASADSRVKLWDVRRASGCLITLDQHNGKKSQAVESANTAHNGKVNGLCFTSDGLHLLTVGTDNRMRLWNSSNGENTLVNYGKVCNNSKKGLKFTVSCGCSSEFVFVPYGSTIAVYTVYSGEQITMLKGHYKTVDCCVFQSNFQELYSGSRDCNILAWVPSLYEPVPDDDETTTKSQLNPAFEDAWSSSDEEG
UniProt Q13867: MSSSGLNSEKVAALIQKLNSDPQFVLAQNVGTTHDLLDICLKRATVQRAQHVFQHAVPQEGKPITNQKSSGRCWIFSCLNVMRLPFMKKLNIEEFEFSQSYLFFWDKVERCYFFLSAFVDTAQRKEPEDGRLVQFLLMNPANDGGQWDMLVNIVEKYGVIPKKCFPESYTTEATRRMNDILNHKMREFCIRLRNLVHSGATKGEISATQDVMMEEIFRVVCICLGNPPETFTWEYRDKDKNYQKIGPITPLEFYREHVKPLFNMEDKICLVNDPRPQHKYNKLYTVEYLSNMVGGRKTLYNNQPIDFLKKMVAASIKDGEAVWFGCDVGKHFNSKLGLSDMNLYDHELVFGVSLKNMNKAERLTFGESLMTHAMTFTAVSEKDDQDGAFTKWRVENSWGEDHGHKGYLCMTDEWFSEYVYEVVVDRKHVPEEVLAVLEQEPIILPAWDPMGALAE
UniProt Q13425: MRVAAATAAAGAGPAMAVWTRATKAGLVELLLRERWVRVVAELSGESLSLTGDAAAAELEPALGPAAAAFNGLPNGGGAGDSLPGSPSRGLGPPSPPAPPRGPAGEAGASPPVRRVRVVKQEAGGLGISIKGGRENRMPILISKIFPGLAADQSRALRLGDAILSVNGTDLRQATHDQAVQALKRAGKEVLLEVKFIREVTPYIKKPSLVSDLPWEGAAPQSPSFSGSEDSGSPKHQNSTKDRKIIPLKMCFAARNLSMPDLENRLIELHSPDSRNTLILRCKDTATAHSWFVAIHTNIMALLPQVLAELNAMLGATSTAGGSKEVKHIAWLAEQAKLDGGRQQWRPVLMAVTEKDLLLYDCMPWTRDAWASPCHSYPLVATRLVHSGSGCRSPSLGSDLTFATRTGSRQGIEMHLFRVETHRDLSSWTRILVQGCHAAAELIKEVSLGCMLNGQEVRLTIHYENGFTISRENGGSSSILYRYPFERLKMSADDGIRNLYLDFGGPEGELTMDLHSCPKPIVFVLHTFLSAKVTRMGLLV
UniProt Q13576: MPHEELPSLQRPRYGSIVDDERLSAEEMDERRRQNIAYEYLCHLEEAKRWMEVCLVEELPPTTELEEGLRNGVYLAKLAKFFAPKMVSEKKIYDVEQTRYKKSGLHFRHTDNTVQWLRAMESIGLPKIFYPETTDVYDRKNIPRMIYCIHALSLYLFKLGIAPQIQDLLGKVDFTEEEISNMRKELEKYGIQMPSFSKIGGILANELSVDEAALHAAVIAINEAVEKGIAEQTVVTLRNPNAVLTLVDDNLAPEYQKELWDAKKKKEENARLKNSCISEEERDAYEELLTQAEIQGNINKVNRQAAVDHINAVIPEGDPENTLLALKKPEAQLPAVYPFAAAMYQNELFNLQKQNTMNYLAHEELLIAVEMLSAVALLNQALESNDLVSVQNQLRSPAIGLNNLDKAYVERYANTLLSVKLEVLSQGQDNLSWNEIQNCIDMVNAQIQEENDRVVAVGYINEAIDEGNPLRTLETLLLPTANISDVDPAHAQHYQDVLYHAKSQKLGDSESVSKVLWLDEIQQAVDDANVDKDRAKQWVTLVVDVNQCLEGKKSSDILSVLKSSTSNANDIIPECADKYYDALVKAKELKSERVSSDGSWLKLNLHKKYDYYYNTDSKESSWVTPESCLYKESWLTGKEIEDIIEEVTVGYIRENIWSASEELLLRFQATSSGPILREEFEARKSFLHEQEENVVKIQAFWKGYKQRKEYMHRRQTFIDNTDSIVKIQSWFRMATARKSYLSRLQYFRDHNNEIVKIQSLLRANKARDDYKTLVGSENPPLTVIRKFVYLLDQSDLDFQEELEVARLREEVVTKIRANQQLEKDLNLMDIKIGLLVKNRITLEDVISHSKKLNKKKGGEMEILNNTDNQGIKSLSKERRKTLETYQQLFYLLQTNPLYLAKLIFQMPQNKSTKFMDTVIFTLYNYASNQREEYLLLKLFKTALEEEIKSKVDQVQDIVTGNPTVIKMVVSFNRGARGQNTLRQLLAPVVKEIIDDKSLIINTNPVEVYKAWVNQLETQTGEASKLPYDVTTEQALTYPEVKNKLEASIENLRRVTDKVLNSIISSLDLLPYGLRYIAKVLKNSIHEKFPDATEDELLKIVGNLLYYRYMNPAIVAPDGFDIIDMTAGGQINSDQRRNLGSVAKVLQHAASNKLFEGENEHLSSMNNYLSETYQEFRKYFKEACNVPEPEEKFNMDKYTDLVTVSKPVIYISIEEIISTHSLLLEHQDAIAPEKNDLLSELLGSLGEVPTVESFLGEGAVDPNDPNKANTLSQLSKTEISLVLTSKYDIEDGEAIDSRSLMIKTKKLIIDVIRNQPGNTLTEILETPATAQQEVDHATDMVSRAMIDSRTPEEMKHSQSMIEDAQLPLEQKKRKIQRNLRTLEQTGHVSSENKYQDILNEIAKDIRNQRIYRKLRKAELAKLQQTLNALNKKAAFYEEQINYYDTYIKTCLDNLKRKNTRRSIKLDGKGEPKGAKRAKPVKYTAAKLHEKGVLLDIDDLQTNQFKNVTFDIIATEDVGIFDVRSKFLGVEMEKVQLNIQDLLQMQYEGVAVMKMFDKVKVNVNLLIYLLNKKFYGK

| Target | NP40-soluble protein abundance (concentration: 0.1mM) | NP40-soluble protein abundance (concentration: 0.5mM) | NP40-soluble protein abundance (concentration: 1mM) | NP40-soluble protein abundance (concentration: 2mM) | NP40-soluble protein abundance (concentration: 4mM) | NP40-soluble protein abundance (concentration: 6mM) | NP40-soluble protein abundance (concentration: 8mM) | NP40-soluble protein abundance (concentration: 10mM) |
| --- | --- | --- | --- | --- | --- | --- | --- | --- |
| HMGCS1 (UniProt Q01581) | 0.961 ± 0.036 | 0.979 ± 0.022 | 0.933 ± 0.044 | 0.919 ± 0.035 | 0.894 ± 0.043 | 0.902 ± 0.033 | 0.872 ± 0.041 | 0.879 ± 0.044 |
| ERCC8 (UniProt Q13216) | 1.11 ± 0.23 | 0.967 ± 0.14 | 1.03 ± 0.095 | 1.12 ± 0.21 | 1.04 ± 0.061 | 0.988 ± 0.035 | 1 ± 0.048 | 0.976 ± 0.034 |
| BLMH (UniProt Q13867) | 1.1 ± 0.061 | 1.05 ± 0.077 | 0.966 ± 0.051 | 1.03 ± 0.11 | 0.979 ± 0.089 | 0.971 ± 0.087 | 0.902 ± 0.022 | 0.921 ± 0.05 |
| UniProt Q13425 and related entries | 1.09 ± 0.032 | 1.05 ± 0.081 | 1.04 ± 0.041 | 1.06 ± 0.031 | 1.08 ± 0.027 | 1.04 ± 0.043 | 1.1 ± 0.075 | 1.02 ± 0.068 |
| IQGAP2 (UniProt Q13576) | 1.04 ± 0.017 | 1.08 ± 0.048 | 1.02 ± 0.036 | 1.02 ± 0.047 | 1.02 ± 0.034 | 1 ± 0.031 | 0.995 ± 0.021 | 0.959 ± 0.03 |
